# Reference: PubChem BioAssay AID445 (National Center for Advancing Translational Sciences (NCATS), 2006)
# The list shows a part of the results. Further columns of the screen follow, without active or inactive calls. The list favours compounds with an active or inconclusive main result. Words in brackets tell the shape of the fitted curve; partial curves, single points and poor fits give uncertain potencies.
# Experiment: IkB Signaling
# Conditions: ABC-DLBCL IkBa-CBG/CBR dual luciferase ratio (green luciferase fused to IkBa over red control in OCI-Ly3 lymphoma cells), 4 h
# In short: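 Curves were fitted separately to fusion (green), unfused (red) and ratio luminescence, then classed by r2, magnitude and activity. Cells: OCI-Ly3, 4 h compound plus doxycycline at 37C; 10 uM MG-132 defined full response.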
# [1] = measured here: control luc red channel unless noted
compound,measurement,setting,value
Cc1cc(N2CCN(C)CC2)nc2ccc(NC(=O)c3ccc(C(C)(C)C)cc3)cc12,AC50,[1],"39.8 µM [falling, single point]"
Cc1ccc(C(=O)n2nc(C)c(S(=O)(=O)N3CCCCCC3)c2C)cc1C,AC50,[1],"31.6 µM [falling, single point]"
COc1ccccc1NC(=O)CSc1nc(O)c(C/C=C/c2ccccc2)c(=O)[nH]1,AC50,[1],"25.1 µM [falling, partial curve]"
COc1ccc(CNC(=O)c2nc(SCc3ccc(C)cc3)ncc2Cl)cc1,AC50,[1],"6.31 µM [rising, single point]"
O=C(O)CCC(=O)Nc1ccc2c(c1)oc1ccccc12,AC50,[1],"0.00316 µM [falling, full curve]"
CCOc1cccc2sc(N3CCN(C(=O)c4ccc5c(c4)CCCC5)CC3)nc12,AC50,[1],"31.6 µM [falling, partial curve]"
CC(C)C(NS(=O)(=O)c1ccc2c(c1)oc(=O)n2C)C(=O)N1CCN(c2cccc(Cl)c2)CC1 (stereo not given),AC50,[1],"39.8 µM [falling, single point]"
CCN(CC)C(=O)c1ccc2c(c1)N(Cc1c(F)cccc1Cl)C(=O)c1ccccc1S2,AC50,[1],"25.1 µM [falling, single point]"
Cc1ccn2c(Nc3c(C)cccc3C)c(-c3ccsc3)nc2c1,AC50,[1],"15.8 µM [falling, partial curve]"
O=C(CSc1nc(=O)[nH]c2c1CCCC2)Nc1ccc(Cl)c(Cl)c1,AC50,[1],"39.8 µM [falling, single point]"
Cc1cccc(NC(=O)Cn2cc(C(=O)c3ccco3)c3ccccc32)c1C,AC50,[1],"31.6 µM [falling, partial curve]"
Cc1nn(CC(=O)NCc2ccc(OC(C)C)cc2)c(=O)c2c(C)n(-c3ccc(Cl)cc3)nc12,AC50,[1],"25.1 µM [falling, partial curve]"
COc1ccc(CN2C(=O)C(NC(=O)c3ccccc3C)(C(F)(F)F)N=C2c2ccccc2)cc1 (stereo not given),AC50,[1],"31.6 µM [falling, partial curve]"
Cc1ccc2oc(-c3ccc(Cl)c(NC(=O)c4ccc(-c5ccccc5[N+](=O)[O-])o4)c3)nc2c1,AC50,[1],"12.6 µM [falling, partial curve]"
O=C(Nc1ccc(F)cc1F)c1noc2c1CCc1ccccc1-2,AC50,[1],"0.0126 µM [falling, full curve]"
COC(=O)c1ccccc1NC(=O)Cc1noc2ccc(C)cc12,AC50,[1],"39.8 µM [falling, single point]"
COCCn1c(=O)c(-c2cccc(C#N)c2)nc2cnc(Nc3ccccc3)nc21,AC50,[1],"5.01 µM [falling, partial curve] [measured here: IkB-luc green channel]"
CCc1ccc(NC(=O)CC2C(=O)N(c3ccccc3)C(=O)N2C(C)C)cc1 (stereo not given),AC50,[1],"3.98 µM [rising, partial curve]"
COc1ccc(Br)cc1CNC(=O)CN1CCSc2ccccc21,AC50,[1],"20 µM [falling, partial curve]"
CCCCc1nnc(NC(=O)CSc2nc(=O)cc(N)n2-c2ccccc2)s1,AC50,[1],"15.8 µM [falling, partial curve]"
CN1CC(=O)NC1=NC(=O)C12CC3CC(CC(C3)C1)C2,AC50,[1],"39.8 µM [rising, single point] [measured here: IkB-luc green channel]"
O=C(Nc1ccc(Cl)c(Cl)c1)N1CCC(c2ccccc2)C1 (stereo not given),AC50,[1],"0.0398 µM [falling, full curve]"
Cc1cccn2c(=O)cc(COc3cccc(NC(=O)c4ccccc4F)c3)nc12,AC50,[1],"2.51 µM [falling, full curve]"
CC(=O)O[C@@H]1C(=O)[C@@]2(C)[C@H](O)C[C@H]3OC[C@]3(OC(C)=O)[C@@H]2[C@H](OC(=O)c2ccccc2)[C@@]2(O)C[C@H](OC(=O)[C@@H](O)[C@@H](NC(=O)c3ccccc3)c3ccccc3)C(C)=C1C2(C)C (stereo in doubt),AC50,[1],"20 nM [rising, full curve, poor fit] [measured here: IkB-luc green channel]"
Cn1c(C(=O)N2CCCC(C(=O)NCCCc3ccccc3)C2)cc2sccc21 (stereo not given),AC50,[1],"15.8 µM [falling, partial curve]"
Cc1ccc(-c2nc(SCC(=O)NCC3CCCO3)c(-c3ccc(C)cc3)[nH]2)cc1 (stereo not given),AC50,[1],"15.8 µM [falling, partial curve]"
NC1=C(c2ccc(F)cc2)C(=O)CS1,AC50,[1],"0.501 µM [falling, full curve]"
COc1ccc(C)cc1NC(=O)c1ccc2c(Cl)c3c(nc2c1)CCC3,AC50,[1],"1.58 µM [falling, full curve]"
Cn1nc(C(=O)N2CCN(c3ccccc3)CC2)c2c1-c1ccccc1S(=O)(=O)C2,AC50,[1],"39.8 µM [falling, single point]"
CCOC(=O)N1CCN(C(=O)c2ccc(Cn3c(=S)[nH]c4cc5c(cc4c3=O)OCO5)cc2)CC1,AC50,[1],"3.16 µM [falling, full curve]"
COc1ccc(S(=O)(=O)c2c(SC)nn(Cc3ccccc3C)c2NC(C)=O)cc1,AC50,[1],"25.1 µM [falling, single point]"
O=C(CSc1nc2c([nH]c3ccccc32)c(=O)n1-c1ccccc1)N1CCCC1,AC50,[1],"1.26 µM [rising, full curve, poor fit]"
Cc1ccc(C)c(S(=O)(=O)N2CCC(c3nc4c(nnn4Cc4ccc(F)cc4)c(=O)[nH]3)CC2)c1,AC50,[1],"20 µM [falling, partial curve]"
Cc1ccc(OCC(=O)Nc2ccc3nn(-c4ccc(Cl)cc4)nc3c2)cc1,AC50,[1],"0.0631 µM [rising, full curve, poor fit]"
CCOC(=O)c1cccc(Nc2ccc3cc(S(=O)(=O)N4CCCCC4)ccc3n2)c1,AC50,[1],"5.01 µM [rising, partial curve]"
O=c1c2oc3ccccc3c2n(Cc2ccccc2)c(=O)n1Cc1ccc2c(c1)OCO2,AC50,[1],"1 µM [falling, partial curve]"
Cc1ccc(C)c(NC(=O)Cn2c(=O)n(CCC(=O)NCc3ccc4c(c3)OCO4)c(=O)c3ccccc32)c1,AC50,[1],"2 µM [rising, full curve, poor fit]"
CCOC(=O)C1CCCN(C(=O)c2ccc3c(c2)N(Cc2ccccc2)C(=O)c2ccccc2S3=O)C1 (stereo not given),AC50,[1],"39.8 µM [falling, single point]"
CCCC(=O)N1c2nc(C(C)C)nn2C2(CCCCC2)[C@@H]2CCCC[C@@H]21,AC50,[1],"15.8 µM [falling, partial curve]"
COc1cccc(NS(=O)(=O)c2ccc3[nH]cc(C(=O)N(C)C4CCCCC4)c(=O)c3c2)c1,AC50,[1],"12.6 µM [falling, partial curve, poor fit]"
O=C(c1cc(-c2cccc(O)c2)on1)N1CCc2ccccc2C1,AC50,measured here: IkB-luc green channel,"25.1 µM [falling, partial curve]"
same,AC50,measured here: control luc red channel,"12.6 µM [falling, partial curve]"
COc1cccc(CNC(=O)c2ccc(NC(=O)N3CCCCc4ccccc43)cc2)c1,AC50,[1],"39.8 µM [falling, single point]"
Cc1cc(C)nc(NC(=NCCc2c[nH]c3ccccc23)NC(=O)c2ccco2)n1,AC50,[1],"7.94 µM [falling, full curve]"
Cc1ccc(-c2cc(C(=O)N(Cc3ccccc3)Cc3ccco3)no2)cc1F,AC50,[1],"39.8 µM [falling, single point]"
O=C(COc1ccc(S(=O)(=O)NC2CCCCC2)cc1)N1CCN(c2ccc(F)cc2)CC1,AC50,[1],"15.8 µM [falling, partial curve]"
COc1ccccc1C(=O)Nc1nnc(S(=O)(=O)N2CCCCCC2)s1,AC50,[1],"3.16 µM [rising, partial curve]"
CCOc1ccc(NC(=O)CSC2=Nc3ccccc3C3=NC(CC(=O)NCc4ccc5c(c4)OCO5)C(=O)N23)cc1 (stereo not given),AC50,[1],"10 µM [falling, partial curve]"
COc1ccc(-c2nc3ccccc3n2Cc2ccc(Cl)cc2)cc1,AC50,[1],"15.8 µM [falling, partial curve]"
O=C(OCc1cc(=O)n2c3c(sc2n1)CCCC3)c1cccc(NC(=O)c2ccccc2F)c1,AC50,[1],"0.794 µM [falling, full curve]"
CC1CCCCN1CC(=O)N1CCCc2c1c(=O)oc1ccc(OCc3ccccc3)cc21 (stereo not given),AC50,[1],"31.6 µM [falling, single point]"
Cc1cc(Br)ccc1NC(=O)C1(S(=O)(=O)c2ccc(Cl)cc2)CC1,AC50,[1],"39.8 µM [falling, single point]"
COc1ccccc1C(=O)Nc1ccc(-c2nc3ccccc3s2)c(C)c1,AC50,[1],"3.98 µM [rising, partial curve]"
CCC(C)(C)n1nnnc1CN1CCN(c2nc3cc(OC)ccc3cc2C#N)CC1,AC50,[1],"10 µM [falling, partial curve]"
Cc1noc2nc(C(=O)O)nc(N3CCCCC3)c12,AC50,[1],"39.8 µM [falling, single point]"
CCOC(=O)c1sc(SCC(=O)Nc2ccc(N(C)C)cc2)nc1N,AC50,[1],"3.16 µM [falling, full curve]"
CCCCN(CC)C(=O)Nc1ccc2c(c1)N(C)C(=O)c1ccccc1S2,AC50,[1],"12.6 µM [falling, partial curve]"
COC(=O)c1c(C)sc(-c2c(-c3cccc(OC)c3)[nH]c3c2c(=O)[nH]c(=O)n3C)c1O,AC50,[1],"10 µM [falling, partial curve]"
COc1ccc(C)c2sc(N(Cc3cccnc3)C(=O)CCc3ccccc3)nc12,AC50,[1],"12.6 µM [falling, partial curve]"
CCCn1c(=O)c2sccc2n2c(CCCC(=O)Nc3ccc(C)c(F)c3)nnc12,AC50,[1],"20 µM [falling, single point]"

# 2 entries drawn at random from the list so far:
compound,measurement,setting,value
O=C(Nc1ccc(Cl)c(Cl)c1)N1CCC(c2ccccc2)C1 (stereo not given),AC50,[1],"0.0398 µM [falling, full curve]"
Cc1ccc(-c2cc(C(=O)N(Cc3ccccc3)Cc3ccco3)no2)cc1F,AC50,[1],"39.8 µM [falling, single point]"

# A stretch taken from the entries so far:
compound,measurement,setting,value
COc1ccccc1C(=O)Nc1nnc(S(=O)(=O)N2CCCCCC2)s1,AC50,[1],"3.16 µM [rising, partial curve]"
CCOc1ccc(NC(=O)CSC2=Nc3ccccc3C3=NC(CC(=O)NCc4ccc5c(c4)OCO5)C(=O)N23)cc1 (stereo not given),AC50,[1],"10 µM [falling, partial curve]"
